This note sets out measurements from doi:10.1101/2023.06.21.545551.

A weaker result is weaker than the reference pair of the same experiment. For some assays here: Construct, isoform or probe ends are uncertain for at least one entry. For some assays here: At least one verdict rests on a figure or table, not on a statement of the authors.

What all share (assay): SPR
Data set [1] has as its system MbIIIb-MYC(352-437) + MAX(22-102). The settings on record: less pronounced effect than Mb0.
Data set [2] deals with MYC(2-439) full-length + MAX(2-160). The following applies: range over canonical and mutant E-Boxes.
In data set [3] the test system is MYC(352-437) + MAX(2-160) co-expressed.
For data set [4], the system named is MbIIIa-MYC(352-437) + MAX(22-102). The following applies: less pronounced effect than Mb0.
The test system of data set [5] is MYC(151-439) + MAX(2-160) of commercial complex.

With “CCGGTAACGTTGCCTA (double strand) [Mutant E-Box 2 (non E-Box)]”, the binding result in data set [1], in data set [2], in data set [3] (Kd only in figure), in data set [4] and in data set [5] was “binds more weakly” each time.
Take “CCGGTCACGTGGCCTA (double strand) [E-Box (SPR)]”: the binding result in data set [1] and in data set [4] was “binds more weakly” in each case.
Consider “CCGGTCATATGGCCTA (double strand) [Mutant E-Box 1 (low-affinity E-Box)]”, for which the binding result in data set [2], in data set [3] (Kd only in figure) and in data set [5] was “binds more weakly” in each case.
Consider “CCGGTTTAGCAGCCTA (double strand) [Negative control]”, for which, in data set [3] (weakly bound), the binding result is “binds more weakly”.
